This test deals with HEK293A TEAD-LUC reporter. The test can be described thus: TEAD-luciferase reporter activity (YAP activation), robust Z score vs plate; higher = stronger YAP/TEAD activation. Particulars: 24 h.

Structures can show the parent of a compound that is named as a salt. The list shows a part of the results. Single values are uncertain here, since repeats match poorly.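 In a drug-repurposing library screen, luminescence reads luciferase driven by eight TEAD-binding elements, stably integrated into human kidney-derived cells. Compounds scoring over five robust Z scores above the plate mean are called hits.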

Take `Cc1cc(C(=C2C=CC(=N)C=C2)c2ccc(N)c(C)c2)ccc1N`: the TEAD-luciferase reporter activity is inactive: -0.887 (compound concentration: 200 nM), inactive: 1.18 (compound concentration: 2 uM) and inactive: -0.567 (compound concentration: 10 uM).

Regarding `COCCN(CCOC)c1nc(C)nc2c(-c3ccc(OC)cc3C)c(C)nn12`, the TEAD-luciferase reporter activity (compound concentration: 200 nM) was inactive: 0.226, the TEAD-luciferase reporter activity (compound concentration: 2 uM) was inactive: -0.0597 and the TEAD-luciferase reporter activity (compound concentration: 10 uM) was inactive: 1.02.

With `CCN(/N=C/c1ccc([N+](=O)[O-])o1)C(N)=O`, the TEAD-luciferase reporter activity runs as follows: (compound concentration: 200 nM) inactive: -0.593; (compound concentration: 2 uM) inactive: -1.25; (compound concentration: 10 uM) inactive: -0.518.

As to `CC1(C)Oc2ccc(S(=O)(=O)c3ccccc3)cc2[C@@H](N2CCCC2=O)[C@@H]1O`, the TEAD-luciferase reporter activity is, setting by setting: (compound concentration: 200 nM) inactive: 1.86; (compound concentration: 2 uM) inactive: -1.05; (compound concentration: 10 uM) inactive: -0.372.

Turning to `CCOC(=O)C(C#N)=C(c1ccccc1)c1ccccc1`, the TEAD-luciferase reporter activity is, setting by setting: (compound concentration: 200 nM) inactive: 0.26; (compound concentration: 2 uM) inactive: -0.975; (compound concentration: 10 uM) inactive: -0.486.

On to `CNC1Cc2ccccc2N(C)c2ccccc21` (stereo not given), for which the TEAD-luciferase reporter activity (compound concentration: 200 nM) is inactive: -0.739, the TEAD-luciferase reporter activity (compound concentration: 2 uM) was inactive: -0.236 and the TEAD-luciferase reporter activity (compound concentration: 10 uM) was inactive: 3.36.

Turning to `CC[C@]1(c2ccccc2)NC(=O)N(C)C1=O` [(R)-Mephenytoin], the TEAD-luciferase reporter activity runs as follows: (compound concentration: 200 nM) inactive: -0.232; (compound concentration: 10 uM) inactive: 0.0849.

`CC[C@]1(c2ccccc2)NC(=O)N(C)C1=O` [(R)-(?)-Mephenytoin]: the TEAD-luciferase reporter activity (compound concentration: 2 uM) is inactive: -0.49.

On to `O=C(/C=C/c1ccc(O)c(O)c1)O[C@H](Cc1ccc(O)c(O)c1)C(=O)O` [Rosmarinic acid], for which the TEAD-luciferase reporter activity by setting is: (compound concentration: 200 nM) inactive: -1.35; (compound concentration: 2 uM) inactive: -0.308; (compound concentration: 10 uM) inactive: 0.766.

As to `CC(=O)C(=Cc1ccc(S(C)(=O)=O)cc1)C(C)=O`, the TEAD-luciferase reporter activity by setting is: (compound concentration: 200 nM) inactive: 0.0939; (compound concentration: 2 uM) inactive: -1.45; (compound concentration: 10 uM) inactive: -0.907.

Turning to `C=C[C@@](C)(/C=C/c1ccc(O)cc1)CCC=C(C)C` [Drupanol], the TEAD-luciferase reporter activity reads like this: (compound concentration: 200 nM) inactive: 0.454; (compound concentration: 2 uM) inactive: -1.6; (compound concentration: 10 uM) active: 6.39.

For `CC(=O)C1=C(O)/C(=C(\C)Nc2ccc(O)c(N)c2)C(=O)OC1=O`, the TEAD-luciferase reporter activity runs as follows: (compound concentration: 200 nM) inactive: 0.353; (compound concentration: 2 uM) inactive: -0.99; (compound concentration: 10 uM) inactive: -0.111.

Consider `CC(CCc1ccc(I)cc1)CC(=O)O` (stereo not given), for which the TEAD-luciferase reporter activity by setting is: (compound concentration: 200 nM) inactive: 0.909; (compound concentration: 2 uM) inactive: -0.169; (compound concentration: 10 uM) inactive: 1.88.

As for `NC(=O)c1nc(-c2ccc(F)cc2)c(CCN2CCC(=Cc3cccc(F)c3)CC2)s1`, the TEAD-luciferase reporter activity by setting is: (compound concentration: 200 nM) inactive: -0.117; (compound concentration: 2 uM) inactive: -1.16; (compound concentration: 10 uM) inactive: -1.24.

On to `O=C(Nc1nc(-c2ccccc2)cs1)OCC(Cl)(Cl)Cl` [lotifazole], for which the TEAD-luciferase reporter activity reads like this: (compound concentration: 200 nM) inactive: -0.51; (compound concentration: 2 uM) inactive: -1.57; (compound concentration: 10 uM) inactive: 2.86.

Take `CCN(C[C@H]1COC(N)=N1)c1ccccc1`: the TEAD-luciferase reporter activity is, setting by setting: (compound concentration: 200 nM) inactive: -0.917; (compound concentration: 2 uM) inactive: -1.24; (compound concentration: 10 uM) inactive: 0.41.

Turning to `CCCCC[C@H](O)/C=C/[C@@H]1c2cc(CCCCC(=O)[O-])n(-c3ccccc3)c2C[C@H]1O` [Piriprost], the TEAD-luciferase reporter activity reads like this: (compound concentration: 200 nM) inactive: 0.321; (compound concentration: 2 uM) inactive: -0.957; (compound concentration: 10 uM) inactive: -0.931.

For `Cc1cc(CCN2CCN(c3cccc(Cl)c3)CC2)n[nH]1` [mepiprazole], the TEAD-luciferase reporter activity is inactive: 0.655 (compound concentration: 200 nM), inactive: -1.05 (compound concentration: 2 uM) and inactive: -0.0327 (compound concentration: 10 uM).

As for `CCN(CCNC(=O)Nc1ccccc1Br)c1cccc(C)c1`, the TEAD-luciferase reporter activity is inactive: -2.72 (compound concentration: 200 nM), inactive: -0.813 (compound concentration: 2 uM) and inactive: -1.32 (compound concentration: 10 uM).

Regarding `N=C(N)N` [Guanidine (hydrochloride)], the TEAD-luciferase reporter activity (compound concentration: 2 uM) was inactive: -1.38.

Consider `N=C(N)N` [Guanidine (HCL)], for which, for the setting “compound concentration: 2 uM”, the TEAD-luciferase reporter activity is inactive: -1.36.

Consider `N=C(N)N`, for which the TEAD-luciferase reporter activity is inactive: -1.54 (compound concentration: 200 nM) and inactive: 0.127 (compound concentration: 10 uM).

In the case of `O=C1CN(/N=C/c2ncc(-c3ccc(Br)cc3)o2)C(=O)N1` [azumolene sodium], the TEAD-luciferase reporter activity is, setting by setting: (compound concentration: 200 nM) inactive: -1.47; (compound concentration: 2 uM) inactive: -2.58; (compound concentration: 10 uM) inactive: -0.144.

Take `CC(C)(C)CC(C)(C)c1ccc(O)c(Cc2ccc(Cl)cc2Cl)c1` [clofoctol]: the TEAD-luciferase reporter activity reads like this: (compound concentration: 200 nM) inactive: 0.166; (compound concentration: 2 uM) inactive: -0.276; (compound concentration: 10 uM) inactive: -1.49.

Regarding `COc1cc(CC2NCCc3cc(O)c(O)cc32)cc(OC)c1OC` (stereo not given) [tretoquinol], the TEAD-luciferase reporter activity was inactive: -2.03 (compound concentration: 200 nM), inactive: -1.35 (compound concentration: 2 uM) and inactive: 0.865 (compound concentration: 10 uM).

Turning to `Clc1ccc(C(Cn2ccnc2)OCc2c(Cl)cccc2Cl)c(Cl)c1` (stereo not given) [isoconazole], the TEAD-luciferase reporter activity by setting is: (compound concentration: 200 nM) inactive: -0.645; (compound concentration: 2 uM) inactive: 0.51; (compound concentration: 10 uM) inactive: 0.501.

With `CCN(CC)CCCNc1ccnc2cc(Cl)ccc12`, the TEAD-luciferase reporter activity (compound concentration: 200 nM) is inactive: -0.763, the TEAD-luciferase reporter activity (compound concentration: 2 uM) was inactive: 0.154 and the TEAD-luciferase reporter activity (compound concentration: 10 uM) is inactive: 4.1.

Regarding `CO/N=C(\C(=O)N[C@@H]1C(=O)N2C(C(=O)OC(C)OC(C)=O)=C(COC(N)=O)CS[C@H]12)c1ccco1` (stereo not given in full) [Cefuroxime Axetil], the TEAD-luciferase reporter activity was inactive: -0.0935 (compound concentration: 200 nM) and inactive: 0.365 (compound concentration: 10 uM).

Values taken from the supplement of paper PMC10735217.
